{"source": "the supplement of paper PMC8728848", "binders": {"B1": {"name": "LysMD3 (Homo sapiens), Q7Z3D4 (protein)", "chain": "MAGRHQNRSFPLPGVQSSGQVHAFGNCSDSDILEEDAEVYELRSRGKEKVRRSTSRDRLDDIIVLTKDIQEGDTLNAIALQYCCTVADIKRVNNLISDQDFFALRSIKIPVKKFSSLTETLCPPKGRQTSRHSSVQYSSEQQEILPANDSLAYSDSAGSFLKEVDRDIEQIVKCTDNKRENLNEVVSALTAQQMRFEPDNKNTQRKDPYYGADWGIG"}}, "assay_in_all_cases": "glycan array binding signal (z-score within array); higher = stronger binding", "conditions_in_all_cases": "glycan notation: IUPAC condensed, linker removed", "key": {"[1]": {"molecular_target": "Gal(b1-3)GlcNAc(b1-2)Man(a1-3)[Gal(b1-3)GlcNAc(b1-2)Man(a1-6)]Man(b1-4)GlcNAc(b1-4)GlcNAc", "outline": "(§1)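 Negative Z-scores can be read as non-binding. The Z-score is calculated within each array and then averaged across arrays of one protein sequence at different concentrations or buffers and across linkers. Arrays, 3228 in all, were curated from the Consortium for Functional Glycomics database and kept only where the protein sequence was available.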"}, "[2]": {"molecular_target": "Gal(b1-3)GlcNAc(b1-2)Man(a1-3)[Gal(b1-3)GlcNAc(b1-2)Man(a1-6)]Man(b1-4)GlcNAc(b1-4)[Fuc(a1-6)]GlcNAc", "outline": "as §1"}, "[3]": {"molecular_target": "Gal(b1-3)GlcNAc(b1-2)Man(a1-3)[GlcNAc(b1-4)][Gal(b1-3)GlcNAc(b1-2)Man(a1-6)]Man(b1-4)GlcNAc(b1-4)GlcNAc", "outline": "as §1"}, "[4]": {"molecular_target": "Gal(b1-3)GlcNAc(b1-2)[Gal(b1-3)GlcNAc(b1-6)]Man(a1-6)[Gal(b1-3)GlcNAc(b1-2)Man(a1-3)]Man(b1-4)GlcNAc(b1-4)GlcNAc", "outline": "as §1"}, "[5]": {"molecular_target": "Gal(b1-3)GlcNAc(b1-3)Gal(b1-3)GlcNAc", "outline": "as §1"}, "[6]": {"molecular_target": "Gal(b1-3)GlcNAc(b1-3)Gal(b1-4)Glc", "outline": "as §1"}, "[7]": {"molecular_target": "Gal(b1-3)GlcNAc(b1-3)Gal(b1-4)GlcNAc", "outline": "as §1"}, "[8]": {"molecular_target": "Gal(b1-3)GlcNAc(b1-3)Gal(b1-4)GlcNAc(b1-2)Man(a1-3)[Gal(b1-3)GlcNAc(b1-3)Gal(b1-4)GlcNAc(b1-2)Man(a1-6)]Man(b1-4)GlcNAc(b1-4)GlcNAc", "outline": "as §1"}, "[9]": {"molecular_target": "Gal(b1-3)GlcNAc(b1-3)Gal(b1-4)GlcNAc(b1-2)[Gal(b1-3)GlcNAc(b1-3)Gal(b1-4)GlcNAc(b1-6)]Man(a1-6)[Gal(b1-3)GlcNAc(b1-3)Gal(b1-4)GlcNAc(b1-2)Man(a1-3)]Man(b1-4)GlcNAc(b1-4)[Fuc(a1-6)]GlcNAc", "outline": "as §1"}, "[10]": {"molecular_target": "Gal(b1-3)GlcNAc(b1-3)Gal(b1-4)GlcNAc(b1-3)Gal(b1-4)GlcNAc(b1-2)[Gal(b1-3)GlcNAc(b1-3)Gal(b1-4)GlcNAc(b1-3)Gal(b1-4)GlcNAc(b1-6)]Man(a1-6)[Gal(b1-3)GlcNAc(b1-3)Gal(b1-4)GlcNAc(b1-3)Gal(b1-4)GlcNAc(b1-2)Man(a1-3)]Man(b1-4)GlcNAc(b1-4)[Fuc(a1-6)]GlcNAc", "outline": "as §1"}, "[11]": {"molecular_target": "Gal(b1-3)GlcNAc(b1-3)Gal(b1-4)GlcNAc(b1-6)[Gal(b1-3)GlcNAc(b1-3)]Gal(b1-4)Glc", "outline": "as §1"}, "[12]": {"molecular_target": "Gal(b1-3)GlcNAc(b1-3)Gal(b1-4)[Fuc(a1-3)]GlcNAc", "outline": "as §1"}, "[13]": {"molecular_target": "Gal(b1-3)GlcNAc(b1-3)Gal(b1-4)[Fuc(a1-3)]GlcNAc(b1-6)[Gal(b1-3)GlcNAc(b1-3)]Gal(b1-4)Glc", "outline": "as §1"}, "[14]": {"molecular_target": "Gal(b1-3)GlcNAc(b1-3)GalNAc", "outline": "as §1"}, "[15]": {"molecular_target": "Gal(b1-3)GlcNAc(b1-6)Gal(b1-4)GlcNAc", "outline": "as §1"}, "[16]": {"molecular_target": "Gal(b1-3)GlcNAc(b1-6)GalNAc", "outline": "as §1"}, "[17]": {"molecular_target": "Gal(b1-3)GlcNAc(b1-6)[Gal(b1-3)]GalNAc", "outline": "as §1"}, "Gal(b1-3)GlcNAc6S": {"molecular_target": "Gal(b1-3)GlcNAc6S", "outline": "as §1"}, "[18]": {"molecular_target": "Gal(b1-3)[Fuc(a1-4)]GlcNAc", "outline": "as §1"}, "[19]": {"molecular_target": "Gal(b1-3)[Fuc(a1-4)]GlcNAc(b1-2)Man", "outline": "as §1"}, "[20]": {"molecular_target": "Gal(b1-3)[Fuc(a1-4)]GlcNAc(b1-2)Man(a1-3)[Gal(b1-3)[Fuc(a1-4)]GlcNAc(b1-2)Man(a1-6)]Man(b1-4)GlcNAc(b1-4)[Fuc(a1-6)]GlcNAc", "outline": "as §1"}, "[21]": {"molecular_target": "Gal(b1-3)[Fuc(a1-4)]GlcNAc(b1-3)Gal(b1-3)[Fuc(a1-4)]GlcNAc", "outline": "as §1"}, "[22]": {"molecular_target": "Gal(b1-3)[Fuc(a1-4)]GlcNAc(b1-3)Gal(b1-4)[Fuc(a1-3)]GlcNAc", "outline": "as §1"}, "[23]": {"molecular_target": "Gal(b1-3)[Fuc(a1-4)]GlcNAc(b1-6)GalNAc", "outline": "as §1"}, "[24]": {"molecular_target": "Gal(b1-3)[GlcNAc(b1-6)]GalNAc", "outline": "as §1"}, "[25]": {"molecular_target": "Gal(b1-3)[Neu5Ac(a2-6)]GalNAc", "outline": "as §1"}, "[26]": {"molecular_target": "Gal(b1-3)[Neu5Ac(a2-6)]GlcNAc(b1-4)Gal(b1-4)Glc", "outline": "as §1"}, "[27]": {"molecular_target": "Gal(b1-3)[Neu5Ac(b2-6)]GalNAc", "outline": "as §1"}, "Gal(b1-4)Gal": {"molecular_target": "Gal(b1-4)Gal", "outline": "as §1"}, "[28]": {"molecular_target": "Gal(b1-4)GalNAc(a1-3)[Fuc(a1-2)]Gal(b1-4)GlcNAc", "outline": "as §1"}, "[29]": {"molecular_target": "Gal(b1-4)GalNAc(b1-3)[Fuc(a1-2)]Gal(b1-4)GlcNAc", "outline": "as §1"}, "Gal(b1-4)Glc": {"molecular_target": "Gal(b1-4)Glc", "outline": "as §1"}, "Gal(b1-4)Glc6S": {"molecular_target": "Gal(b1-4)Glc6S", "outline": "as §1"}, "Gal(b1-4)GlcNAc": {"molecular_target": "Gal(b1-4)GlcNAc", "outline": "as §1"}, "[30]": {"molecular_target": "Gal(b1-4)GlcNAc(a1-6)Gal(b1-4)GlcNAc", "outline": "as §1"}, "Gal(b1-4)GlcNAc(b1-2)Man": {"molecular_target": "Gal(b1-4)GlcNAc(b1-2)Man", "outline": "as §1"}, "[31]": {"molecular_target": "Gal(b1-4)GlcNAc(b1-2)Man(a1-3)Man(b1-4)GlcNAc(b1-4)GlcNAc", "outline": "as §1"}, "[32]": {"molecular_target": "Gal(b1-4)GlcNAc(b1-2)Man(a1-3)[Gal(b1-4)GlcNAc(b1-2)Man(a1-6)]Man(b1-4)GlcNAc(b1-4)GlcNAc", "outline": "as §1"}, "[33]": {"molecular_target": "Gal(b1-4)GlcNAc(b1-2)Man(a1-3)[Gal(b1-4)GlcNAc(b1-2)Man(a1-6)]Man(b1-4)GlcNAc(b1-4)[Fuc(a1-6)]GlcNAc", "outline": "as §1"}, "[34]": {"molecular_target": "Gal(b1-4)GlcNAc(b1-2)Man(a1-3)[Gal(b1-4)GlcNAc(b1-2)Man(a1-6)][Gal(b1-4)GlcNAc(b1-4)]Man(b1-4)GlcNAc(b1-4)[Fuc(a1-6)]GlcNAc", "outline": "as §1"}, "[35]": {"molecular_target": "Gal(b1-4)GlcNAc(b1-2)Man(a1-3)[Gal(b1-4)GlcNAc(b1-2)Man(a1-6)][GlcNAc(b1-4)]Man(b1-4)GlcNAc(b1-4)[Fuc(a1-6)]GlcNAc", "outline": "as §1"}, "[36]": {"molecular_target": "Gal(b1-4)GlcNAc(b1-2)Man(a1-3)[GlcNAc(b1-2)Man(a1-6)]Man(b1-4)GlcNAc(b1-4)GlcNAc", "outline": "as §1"}, "[37]": {"molecular_target": "Gal(b1-4)GlcNAc(b1-2)Man(a1-3)[GlcNAc(b1-4)][Gal(b1-4)GlcNAc(b1-2)Man(a1-6)]Man(b1-4)GlcNAc(b1-4)GlcNAc", "outline": "as §1"}, "[38]": {"molecular_target": "Gal(b1-4)GlcNAc(b1-2)Man(a1-3)[Man(a1-6)]Man(b1-4)GlcNAc(b1-4)GlcNAc", "outline": "as §1"}, "[39]": {"molecular_target": "Gal(b1-4)GlcNAc(b1-2)Man(a1-6)Man(b1-4)GlcNAc(b1-4)GlcNAc", "outline": "as §1"}}, "note": "The list shows a part of the results."}
{"binder": "B1", "values": [{"measurement": "glycan array binding signal (z-score)", "setting": "[1]", "result": -1.19}, {"measurement": "glycan array binding signal (z-score)", "setting": "[2]", "result": -0.083}, {"measurement": "glycan array binding signal (z-score)", "setting": "[3]", "result": -0.659}, {"measurement": "glycan array binding signal (z-score)", "setting": "[4]", "result": 0.88}, {"measurement": "glycan array binding signal (z-score)", "setting": "[5]", "result": -0.195}, {"measurement": "glycan array binding signal (z-score)", "setting": "[6]", "result": 0.856}, {"measurement": "glycan array binding signal (z-score)", "setting": "[7]", "result": -0.113}, {"measurement": "glycan array binding signal (z-score)", "setting": "[8]", "result": -0.246}, {"measurement": "glycan array binding signal (z-score)", "setting": "[9]", "result": -0.134}, {"measurement": "glycan array binding signal (z-score)", "setting": "[10]", "result": -0.255}, {"measurement": "glycan array binding signal (z-score)", "setting": "[11]", "result": -0.798}, {"measurement": "glycan array binding signal (z-score)", "setting": "[12]", "result": 2.15}, {"measurement": "glycan array binding signal (z-score)", "setting": "[13]", "result": -0.547}, {"measurement": "glycan array binding signal (z-score)", "setting": "[14]", "result": -0.895}, {"measurement": "glycan array binding signal (z-score)", "setting": "[15]", "result": 1.65}, {"measurement": "glycan array binding signal (z-score)", "setting": "[16]", "result": -0.673}, {"measurement": "glycan array binding signal (z-score)", "setting": "[17]", "result": 0.213}, {"measurement": "glycan array binding signal (z-score)", "setting": "Gal(b1-3)GlcNAc6S", "result": -0.786}, {"measurement": "glycan array binding signal (z-score)", "setting": "[18]", "result": 1.22}, {"measurement": "glycan array binding signal (z-score)", "setting": "[19]", "result": -0.333}, {"measurement": "glycan array binding signal (z-score)", "setting": "[20]", "result": -0.295}, {"measurement": "glycan array binding signal (z-score)", "setting": "[21]", "result": -0.551}, {"measurement": "glycan array binding signal (z-score)", "setting": "[22]", "result": 0.366}, {"measurement": "glycan array binding signal (z-score)", "setting": "[23]", "result": -0.262}, {"measurement": "glycan array binding signal (z-score)", "setting": "[24]", "result": 0.565}, {"measurement": "glycan array binding signal (z-score)", "setting": "[25]", "result": 0.105}, {"measurement": "glycan array binding signal (z-score)", "setting": "[26]", "result": -0.417}, {"measurement": "glycan array binding signal (z-score)", "setting": "[27]", "result": 0.205}, {"measurement": "glycan array binding signal (z-score)", "setting": "Gal(b1-4)Gal", "result": -0.109}, {"measurement": "glycan array binding signal (z-score)", "setting": "[28]", "result": 1.11}, {"measurement": "glycan array binding signal (z-score)", "setting": "[29]", "result": -0.217}, {"measurement": "glycan array binding signal (z-score)", "setting": "Gal(b1-4)Glc", "result": -0.555}, {"measurement": "glycan array binding signal (z-score)", "setting": "Gal(b1-4)Glc6S", "result": -0.057}, {"measurement": "glycan array binding signal (z-score)", "setting": "Gal(b1-4)GlcNAc", "result": 0.257}, {"measurement": "glycan array binding signal (z-score)", "setting": "[30]", "result": 0.599}, {"measurement": "glycan array binding signal (z-score)", "setting": "Gal(b1-4)GlcNAc(b1-2)Man", "result": -0.361}, {"measurement": "glycan array binding signal (z-score)", "setting": "[31]", "result": 0.363}, {"measurement": "glycan array binding signal (z-score)", "setting": "[32]", "result": -0.64}, {"measurement": "glycan array binding signal (z-score)", "setting": "[33]", "result": 0.035}, {"measurement": "glycan array binding signal (z-score)", "setting": "[34]", "result": -0.656}, {"measurement": "glycan array binding signal (z-score)", "setting": "[35]", "result": 0.435}, {"measurement": "glycan array binding signal (z-score)", "setting": "[36]", "result": -1.1}, {"measurement": "glycan array binding signal (z-score)", "setting": "[37]", "result": 0.056}, {"measurement": "glycan array binding signal (z-score)", "setting": "[38]", "result": -0.625}, {"measurement": "glycan array binding signal (z-score)", "setting": "[39]", "result": -0.751}]}
